# Reference: US20250195463A1 (FACULDADE DE CIÊNCIAS DA UNIVERSIDADE DE LISBOA, priority 2022, published 2025)
# For some of these results: Plain letter strings leave the end groups untold.
# Assay: general procedure: Fmoc solid-phase peptide synthesis; rink-amide MBHA
# Settings: whole synthesis, RP-HPLC, scale 0.3 mmol
row,Substance,final HPLC purity [%]
1,N2H3CO(C2H4CO)2OCONH-VSPPLTLGQLLS,97
2,N2H3COC2H4CONH-VSPPLTLGQLLS,≥97
3,CH3COC2H4CONH-VSPPLTLGQLLS,>97
4,VSPPLTLGQLLS,>97

# Assay: general procedure: Fmoc solid-phase peptide synthesis; rink-amide 4-methylbenzhydrylamine resin (100-200 mesh, 0.78 mmol/g loading)
# Settings: conjugation step, RP-HPLC
row,Substance,final HPLC purity [%]
1,[Ru(CpCCH3N2HCOC2H4CONH-VSPPLTLGQLLS)(PPh)(bipy)][CF3SO3],>97
2,[Ru(CpCON2HCCH3C2H4CONH-VSPPLTLGQLLS)(PPh)(bipy)][CF3SO3],97
3,[Ru(CpCCH3N2HCOC2H4CONH-VSPPLTLGQLLS)(PPh3)(phen)][CF3SO3],>97
